Results from patent US20220041711A1.
Results are given in words; binding and its absence hold for the method and conditions named. Some entries that bind do so weakly or less than the wild type.

Key:
[1] = target: cyno LAIR-1-CD3ζ chimeric receptor on NFAT-GFP reporter cells (cynomolgus monkey; human) (UniProt P20963); experiment: flow cytometry on cells
[2] = target: human LAIR-1-CD3ζ chimeric receptor on NFAT-GFP reporter cells (human) (UniProt P20963); experiment: flow cytometry on cells
[3] = target: cyno LAIR-1-CD3ζ chimeric receptor on NFAT-GFP reporter cells (cynomolgus monkey; human) (UniProt P20963); experiment: flow cytometry on reporter cells, dose-response
[4] = target: human LAIR-1-CD3ζ chimeric receptor on NFAT-GFP reporter cells (human) (UniProt P20963); experiment: flow cytometry on reporter cells, dose-response
[5] = target: human LAIR-1-CD3ζ chimeric receptor on NFAT-GFP reporter cells (human) (UniProt P20963); experiment: flow cytometry on human LAIR-1 reporter cells, PE anti-human Fc secondary, MFI (panel Human LAIR1 Cells)
[6] = target: cyno LAIR-1-CD3ζ chimeric receptor on NFAT-GFP reporter cells (cynomolgus monkey; human) (UniProt P20963); experiment: flow cytometry on cyno LAIR-1 reporter cells, PE anti-human Fc secondary, MFI (panel Cynomolgus Monkey LAIR1 Cells)
[7] = target: T1, mouse LAIR-1 (form in the assay not stated) (mouse) (UniProt Q8BG84); experiment: ELISA and FACS screening
T1 sequence: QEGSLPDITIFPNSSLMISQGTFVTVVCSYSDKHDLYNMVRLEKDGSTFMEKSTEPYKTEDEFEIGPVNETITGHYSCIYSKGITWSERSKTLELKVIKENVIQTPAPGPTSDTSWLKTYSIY

[8] = target: T2, mouse LAIR-1-hFc (Sino Biological) (mouse) (UniProt Q8BG84); experiment: blocking of mouse LAIR-1-hFc (2 µg/mL, pre-incubated with antibody): ELISA on coated mouse collagen type 1 (left) and flow cytometry on HEK-293T cells with mouse MARCO (right)
T2 sequence: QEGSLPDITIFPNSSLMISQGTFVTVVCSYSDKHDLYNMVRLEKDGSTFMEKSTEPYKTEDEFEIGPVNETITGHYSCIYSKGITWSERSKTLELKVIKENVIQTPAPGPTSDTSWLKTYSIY

Measured: binding

B1: anti-LAIR-1 antibody ch47H1 (antibody, V domains shown)
VH: EVQLVETGGGLVQPKGSLKLSCAASGFTFNINAMNWVRQAPGKGLEWVARIRTKNNNYATFYADSVKDRFTISRDDSQSMLYLQMNNLKTDDTAMYYCVRDRAGFFAYWGQGTPVTVSA
VL: DIQMTQSPASQSASLGESVTITCLASQTIGTWLGWYRQKPGKSPQLLIYAATSLADGVPSRFSGSGSGTKFSFKISSLQAEDFVIYYCQQLYSTPLTFGSGTKLEIK
not listed: [7] | [8]
binds: all other assays above

B2: anti-mouse LAIR-1 antibody 43H2 (antibody, V domains shown)
VH: EVQLVESGGGLVQPGRSLKVSCAASGFTFSNYGIHWIRQAPTKGLEWVASISPSGRSTYFRDSVKGRFTISRDNAKNTLYLQLDSLRSEDTATYYCATGINYSSFDYWGQGVMVTVSS
VL: DIVMTQSPTSMSISVGDRVTMNCKASQNVGSHVDWYQQKTGQSPKLLISTASNRYTGVPDRFTGSGSGTDFTFTINNMQTEDLAVYYCMQSNSYPPTFGGGTKLELK
binds: [7] | [8]

B3: humanized anti-LAIR-1 antibody Hz47H1.v4 (antibody, human IgG1, kappa, N297G, V domains shown)
VH: EVQLVESGGGLVQPGGSLRLSCAASGFTFNINAMNWVRQAPGKGLEWVARIRTKNYNYATFYADSVKDRFTISRDDSKNSLYLQMNSLKTEDTAVYYCVRDRAGFFAYWGQGTTVTVSS
VL: DIQMTQSPSSLSASVGDRVTITCLASQTIGTWLGWYQQKPGKAPKLLIYAATSLAEGVPSRFSGSGSGTDFTLTISSLQPEDFATYYCQQLYSTPLTFGGGTKVEIKR
not listed: [7] | [8]
binds: all other assays above
